Measurements from ChEMBL document CHEMBL5445981, “Affinity On-target Cellular Literature for EUbOPEN Chemogenomic Library” (2024).

Amino acid sequences for entries named in this document (tags omitted).
UniProt Q9Y463, whole entry: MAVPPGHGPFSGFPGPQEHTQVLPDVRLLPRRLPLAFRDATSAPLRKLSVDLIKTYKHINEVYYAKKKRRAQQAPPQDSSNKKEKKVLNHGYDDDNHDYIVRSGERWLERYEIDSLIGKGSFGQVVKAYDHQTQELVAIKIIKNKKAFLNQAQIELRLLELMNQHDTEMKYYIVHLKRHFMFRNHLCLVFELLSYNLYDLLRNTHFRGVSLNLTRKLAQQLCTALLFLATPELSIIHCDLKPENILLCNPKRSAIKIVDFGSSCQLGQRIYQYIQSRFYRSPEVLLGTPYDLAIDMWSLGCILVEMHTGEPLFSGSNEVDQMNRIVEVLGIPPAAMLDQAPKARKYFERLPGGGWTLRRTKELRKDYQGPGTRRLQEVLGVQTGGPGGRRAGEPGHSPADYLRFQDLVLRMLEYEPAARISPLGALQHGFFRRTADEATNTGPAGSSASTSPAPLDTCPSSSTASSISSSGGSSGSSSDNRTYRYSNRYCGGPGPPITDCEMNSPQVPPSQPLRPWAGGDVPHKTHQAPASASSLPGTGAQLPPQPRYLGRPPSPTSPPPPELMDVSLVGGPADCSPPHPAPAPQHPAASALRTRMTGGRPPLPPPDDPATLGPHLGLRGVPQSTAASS

Molecular target: Dual specificity tyrosine-phosphorylation-regulated kinase 1B (Homo sapiens, UniProt Q9Y463)
Test: Affinity On-target Cellular interaction: (NanoBRET assay (in HEK293T cells)) EUB0000008b DYRK1B
Assay type: cell-based, HEK-293T
Parameters: mode of action Inhibitor, recommended concentration 1 uM

- Ki: 10 µM
SMILES: Cn1cc(-c2ccc3occ(-c4cccc(-c5ccncc5)c4)c3n2)cn1
